Results reported in US12642270B2, “Substituted thiophene carboxamides, thiophene carboxylic acids and derivatives thereof” (Bayer Aktiengesellschaft, priority 2019, dated 2026).
Some entries share one result that the patent states for a list of compounds.

Legend:
[1] = test system: Xanthomonas campestris pv. campestris; assay: Example P: Xanthomonas campestris pv. campestris in vitro cell test, formula (II); type: cell-based; conditions: 20 ppm of active ingredient, 24 h incubation
Protocol: • Solvent: DMSO • Culture medium: LB broth medium (Luria Broth Miller) Sigma • Inoculum: bacteria suspension
Compounds were solubilized in DMSO and the solution used to prepare the required range of concentrations. The final concentration of DMSO used in the assay was ≤1%.
Inoculum was prepared from a pre-culture of bacteria grown in liquid medium and diluted to the desired optical density (OD).
Compounds were evaluated for their ability to inhibit bacteria growth in liquid culture assay. The compounds were added in the desired concentrations to culture medium containing the bacteria suspension. After 24 h of incubation, the efficacy of compounds was determined by spectrometric measurement of bacteria growth. Inhibition was determined by comparing the absorbance values in wells containing the compounds with the absorbance in control wells without active ingredients.

[2] = test system: Colletotrichum lindemuthianum; assay: Example O: Colletotrichum lindemuthianum in vitro cell test, formula (II); type: cell-based; conditions: 6 days incubation
Protocol: • Solvent: DMSO • Culture medium: 14.6 g anhydrous D-glucose (VWR), 7.1 g Mycological Peptone (Oxoid), 1.4 g granulated Yeast Extract (Merck), QSP 1 liter • Inoculum: spores suspension Fungicides were solubilized in DMSO and the solution used to prepare the required range of concentrations. The final concentration of DMSO used in the assay was: ≤[…]1%. A spore suspension of C. lindemuthianum was prepared and diluted to the desired spore density. Fungicides were evaluated for their ability to inhibit spores germination and mycelium growth in liquid culture assay. The compounds were added in the desired concentration to the culture medium with spores. After 6 days incubation, fungi-toxicity of compounds was determined by spectrometric measurement of mycelium growth. Inhibition of fungal growth was determined by comparing the absorbance values in wells containing the fungicides with the absorbance in control wells without fungicides.

[3] = test system: salicylate responsive promoter sequence of the PR1 (pathogenesis-related protein I) gene (AT2G14610); assay: Example K: induction of defense gene expression in Arabidopsis thaliana (PR1 promoter-GFP reporter plants), formula (II); type: in vivo; conditions: 3rd day after spraying, mock treated leaves = 1.00
Protocol: Arabidopsis thaliana reporter plants containing the coding sequence of a green fluorescent protein (GFP) linked to the salicylate responsive promoter sequence of the PR1 (pathogenesis-related protein I) gene (AT2G14610) were grown for five days and then sprayed with compounds. On the 3rd day after spraying, plant fluorescence was assessed with a MacroFluo instrument from Leica Microsystems (Wetzlar, Germany). Fluorescences were quantified with the Meta-Morph Microscopy Automation & Image Analysis Software (Molecular Devices, Sunnyvale, Calif., United States).
Background fluorescence in mock treated leaves was set as 1.00.

Row | SMILES | efficacy (inhibition of bacteria growth; no direct activity) [1] [%] | efficacy (inhibition of fungal growth; no direct activity) ([2]; 10 ppm of active ingredient) [%] | efficacy (inhibition of fungal growth; no direct activity) ([2]; 20 ppm of active ingredient) [%] | relative fluorescence value ([3]; 75 ppm) | relative fluorescence value ([3]; 300 ppm)
1 | CCOC(=O)c1sc(Br)c(I)c1C [II.031] | ≤ 30 | ≤ 30 | ≤ 30 | above 2 | above 2
2 | Cc1c(C(=O)O)sc(Br)c1C#N [II.007] | ≤ 30 | ≤ 30 | ≤ 30 |  | above 2
3 | COC(=O)c1sc(C)c(Br)c1F [II.084] | ≤ 30 | ≤ 30 | ≤ 30 |  | above 2
4 | COC(=O)c1sc(C#N)c(Br)c1C [II.051] | ≤ 30 | ≤ 30 | ≤ 30 | above 2 | above 2
5 | N#Cc1sc(C(=O)O)cc1Br [II.036] | ≤ 30 | ≤ 30 | ≤ 30 | above 2 | above 2
6 | O=C(O)c1cc(Br)c(Cl)s1 [II.043] | ≤ 30 | ≤ 30 | ≤ 30 |  | above 2
7 | COC(=O)c1sc(Cl)c(Br)c1C#N [II.077] | ≤ 30 | ≤ 30 |  | above 2 | above 2
8 | O=C(O)c1sc(Br)c(Cl)c1Cl [II.010] | ≤ 30 | ≤ 30 | ≤ 30 | above 2 | above 2
9 | O=C(O)c1cc(F)c(Cl)s1 [II.037] | ≤ 30 | ≤ 30 | ≤ 30 | above 2 | above 2
10 | O=C(O)c1sc(Br)c(C(F)F)c1Br [II.078] | ≤ 30 | ≤ 30 | ≤ 30 | above 2 | above 2
11 | COC(=O)c1cc(C#N)c(Cl)s1 [II.045] | ≤ 30 | ≤ 30 | ≤ 30 |  | above 2
12 | O=C(O)c1sc(Cl)c(Br)c1F [II.005] | ≤ 30 | ≤ 30 | ≤ 30 | above 2 | above 2
13 | O=C(O)c1cc(Cl)c(Br)s1 [II.040] | ≤ 30 | ≤ 30 | ≤ 30 |  | above 2
14 | O=C(O)c1sc(Cl)c(Cl)c1C(F)F [II.003] | ≤ 30 | ≤ 30 | ≤ 30 | above 2 | above 2
15 | COC(=O)c1sc(Cl)c(Br)c1Cl [II.027] | ≤ 30 | ≤ 30 | ≤ 30 | above 2 | above 2
16 | O=C(O)c1sc(Cl)c(Br)c1Cl [II.012] | ≤ 30 | ≤ 30 | ≤ 30 | above 2 | above 2
